In assay [1] the target is T1, wild type US2 with three HA tags added to the C-terminus (human cytomegalovirus) (UniProt P09713).
T1 sequence: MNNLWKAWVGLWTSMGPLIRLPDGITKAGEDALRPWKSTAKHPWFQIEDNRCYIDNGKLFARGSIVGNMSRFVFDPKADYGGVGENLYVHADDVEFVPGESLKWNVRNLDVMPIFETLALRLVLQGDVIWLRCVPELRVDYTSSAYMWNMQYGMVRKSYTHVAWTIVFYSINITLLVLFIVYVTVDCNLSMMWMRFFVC
The experiment in a line: co-IP; US2-3xHA stably expressed in U373-MG cells (also with stable CypC depletion or overexpression), immunoisolated from digitonin lysates with anti-HA mAb, immunoblot for endogenous partners. (In western blotting, separated proteins are transferred to a membrane and probed.)

By UniProt entry, the sequences of proteins in these tests, tags left out. Residues count along the entry.
UniProt P23284, residues 34-216: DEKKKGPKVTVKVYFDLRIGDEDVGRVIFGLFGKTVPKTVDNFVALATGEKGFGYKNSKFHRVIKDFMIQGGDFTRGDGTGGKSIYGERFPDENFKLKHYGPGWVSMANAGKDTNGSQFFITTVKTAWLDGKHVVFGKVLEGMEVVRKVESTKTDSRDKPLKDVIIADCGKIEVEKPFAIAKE

A further assay concerns the target myc-tagged cyclophilin B (UniProt P23284). The experiment in a line: co-IP; U373-MG cells transiently transfected for 48 h, lysed in 1% digitonin lysis buffer; epitope-tagged protein immunoisolated with anti-HA or anti-myc mAb, partner detected by immunoblot; for US2-HA with HLA-A2 cells treated with negative control or CypC-(i) siRNA.
The next assay deals with T2, PDIA6-HA (UniProt Q15084).
T2 sequence: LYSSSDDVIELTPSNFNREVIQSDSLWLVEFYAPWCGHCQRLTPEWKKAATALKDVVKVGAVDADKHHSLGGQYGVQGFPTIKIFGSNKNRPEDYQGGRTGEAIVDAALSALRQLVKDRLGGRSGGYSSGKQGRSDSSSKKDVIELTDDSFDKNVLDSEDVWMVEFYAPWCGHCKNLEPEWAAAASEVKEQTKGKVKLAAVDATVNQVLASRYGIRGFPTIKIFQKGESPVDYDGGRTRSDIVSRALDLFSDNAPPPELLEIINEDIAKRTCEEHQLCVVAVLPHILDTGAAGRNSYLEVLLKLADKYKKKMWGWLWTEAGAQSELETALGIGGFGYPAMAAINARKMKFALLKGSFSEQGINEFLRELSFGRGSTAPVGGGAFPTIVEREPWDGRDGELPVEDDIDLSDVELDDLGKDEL
The experiment in a line: co-IP; U373-MG cells transiently transfected with US2, PDIA6-HA or both; anti-HA conjugated beads; immunoblot with polyclonal anti-US2 serum.

The record followed here is article PMC4686535.

Results are given in words; binding and its absence hold for the method and conditions named. Binding seen in cells or lysates may run through a third protein. Some results given as binding are weak or reduced against the parent protein; the word gives no strength. Tags and fused reporters may be left off the sequences shown.

B1: TMEM33 (protein, UniProt P57088 1-247)
chain: MADTTPNGPQGAGAVQFMMTNKLDTAMWLSRLFTVYCSALFVLPLLGLHEAASFYQRALLANALTSALRLHQRLPHFQLSRAFLAQALLEDSCHYLLYSLIFVNSYPVTMSIFPVLLFSLLHAATYTKKVLDARGSNSLPLLRSVLDKLSANQQNILKFIACNEIFLMPATVFMLFSGQGSLLQPFIYYRFLTLRYSSRRNPYCRTLFNELRIVVEHIIMKPACPLFVRRLCLQSIAFISRLAPTVP
As to B1, the binding result in assay [1] is on record as “binds”.

B2: US2 (human cytomegalovirus immunoevasin protein), wild type, untagged (protein, UniProt P09713 1-199)
chain: T1 sequence
As to B2, the values for the binding entry with myc-tagged cyclophilin B and with PDIA6-HA were “no binding” and “binds”, respectively.

B3: malectin (protein, UniProt Q14165 29-292)
chain: PGLGVAGVAGAAGAGLPESVIWAVNAGGEAHVDVHGIHFRKDPLEGRVGRASDYGMKLPILRSNPEDQILYQTERYNEETFGYEVPIKEEGDYVLVLKFAEVYFAQSQQKVFDVRLNGHVVVKDLDIFDRVGHSTAHDEIIPMSIRKGKLSVQGEVSTFTGKLYIEFVKGYYDNPKVCALYIMAGTVDDVPKLQPHPGLEKKEEEEEEEEYDEGSNLKKQTNKNRVQSGPRTPNPYASDNSSLMFPILVAFGVFIPTLFCLCRL
B3: the binding result in assay [1] is given as “binds”.
